Structures can show the parent of a compound that is named as a salt. This is one part of the list. The calls rarely recur for the same compound in another form.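 Kinases, fused to nanoluciferase, were expressed in K562 cells; luminescence was measured every 4 h from 2 to 18 h as percent of control (DMSO = 100%, positive control = 0%). A time point is decreased if signal falls significantly (2 sigma). Hits were called by the authors by a rule that is not shown; the count of time points alone does not decide it.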
Assays:
Test in all cases: kinase-Nluc reporter destabilization hit call (1 = scored as downregulated) (binary); higher = compound decreases kinase abundance
Conditions in all cases: K562; 2-18 h
CDK7 = CDK7 (UniProt P50613)
CDK9 = CDK9 (UniProt P50750)
CHEK2 = CHEK2 (UniProt O96017)
CSF1R = CSF1R (UniProt P07333)
CSK = CSK (UniProt P41240)
CSNK1A1 = CSNK1A1 (UniProt P48729)
CSNK1D = CSNK1D (UniProt P48730)
DDR1 = DDR1 (UniProt Q08345)
DYRK1B = DYRK1B (UniProt Q9Y463)
DYRK2 = DYRK2 (UniProt Q92630)
EGFR = EGFR (UniProt P00533)
EGFR_G719S = EGFR_G719S (UniProt P00533)
EGFR_G719S_T790M = EGFR_G719S_T790M (UniProt P00533)
EGFR_L718V = EGFR_L718V (UniProt P00533)
EGFR_L858R = EGFR_L858R (UniProt P00533)
EGFR_L861Q = EGFR_L861Q (UniProt P00533)
EGFR_T790M = EGFR_T790M (UniProt P00533)
EPHA2 = EPHA2 (UniProt P29317)
ERBB3 = ERBB3 (UniProt P21860)
[1] = molecular target: ERBB4_R711C (clone: ERBB4_mut) (UniProt Q15303)

The chains behind the UniProt entries cited, without tags or fusion partners. Where a name states a change or a piece, a line headed by the entry shows the natural chain unless it says otherwise.
UniProt P50613: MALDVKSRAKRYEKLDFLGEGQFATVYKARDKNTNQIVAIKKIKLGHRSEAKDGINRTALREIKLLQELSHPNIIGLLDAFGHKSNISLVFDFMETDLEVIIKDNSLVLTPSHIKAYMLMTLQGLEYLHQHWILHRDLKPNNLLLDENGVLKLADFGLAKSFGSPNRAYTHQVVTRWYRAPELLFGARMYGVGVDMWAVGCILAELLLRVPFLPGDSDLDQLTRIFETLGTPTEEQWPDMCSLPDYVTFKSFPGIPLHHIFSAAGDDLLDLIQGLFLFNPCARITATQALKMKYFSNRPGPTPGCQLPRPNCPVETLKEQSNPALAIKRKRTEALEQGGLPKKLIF
UniProt P50750, whole entry: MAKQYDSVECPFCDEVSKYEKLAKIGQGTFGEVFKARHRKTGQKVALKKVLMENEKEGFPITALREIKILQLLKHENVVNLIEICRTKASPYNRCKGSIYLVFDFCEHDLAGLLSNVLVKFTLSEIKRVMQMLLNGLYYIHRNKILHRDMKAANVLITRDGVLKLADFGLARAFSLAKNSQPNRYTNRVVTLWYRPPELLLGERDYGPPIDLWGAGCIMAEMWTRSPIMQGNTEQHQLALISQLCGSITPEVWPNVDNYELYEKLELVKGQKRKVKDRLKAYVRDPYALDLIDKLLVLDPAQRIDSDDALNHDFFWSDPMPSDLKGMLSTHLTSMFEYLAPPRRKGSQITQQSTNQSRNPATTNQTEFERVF
UniProt P07333, whole entry: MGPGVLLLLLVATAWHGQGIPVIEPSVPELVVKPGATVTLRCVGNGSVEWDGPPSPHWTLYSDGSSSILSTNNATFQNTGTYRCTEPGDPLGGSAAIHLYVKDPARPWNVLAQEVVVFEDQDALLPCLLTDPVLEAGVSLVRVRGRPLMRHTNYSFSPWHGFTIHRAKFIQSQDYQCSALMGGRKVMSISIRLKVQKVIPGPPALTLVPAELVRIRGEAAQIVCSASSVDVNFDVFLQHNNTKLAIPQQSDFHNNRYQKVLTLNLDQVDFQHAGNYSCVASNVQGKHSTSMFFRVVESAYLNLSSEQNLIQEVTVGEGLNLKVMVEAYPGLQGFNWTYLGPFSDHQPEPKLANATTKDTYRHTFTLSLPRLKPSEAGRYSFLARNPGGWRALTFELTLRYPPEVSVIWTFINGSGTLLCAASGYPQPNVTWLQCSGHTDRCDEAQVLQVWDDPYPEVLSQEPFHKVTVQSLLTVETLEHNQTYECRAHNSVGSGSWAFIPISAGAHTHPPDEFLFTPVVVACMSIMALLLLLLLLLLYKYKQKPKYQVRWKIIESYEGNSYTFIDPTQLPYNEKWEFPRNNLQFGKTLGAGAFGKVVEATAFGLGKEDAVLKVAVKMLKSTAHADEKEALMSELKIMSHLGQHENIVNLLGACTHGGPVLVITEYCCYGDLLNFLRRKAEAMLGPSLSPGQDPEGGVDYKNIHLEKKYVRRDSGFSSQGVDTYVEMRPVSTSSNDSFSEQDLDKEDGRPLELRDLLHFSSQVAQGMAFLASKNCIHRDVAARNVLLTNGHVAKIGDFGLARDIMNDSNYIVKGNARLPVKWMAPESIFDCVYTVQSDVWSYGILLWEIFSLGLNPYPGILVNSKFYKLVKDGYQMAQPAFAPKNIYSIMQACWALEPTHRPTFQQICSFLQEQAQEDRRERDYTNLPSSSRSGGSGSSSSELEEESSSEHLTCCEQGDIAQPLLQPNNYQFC
UniProt P41240: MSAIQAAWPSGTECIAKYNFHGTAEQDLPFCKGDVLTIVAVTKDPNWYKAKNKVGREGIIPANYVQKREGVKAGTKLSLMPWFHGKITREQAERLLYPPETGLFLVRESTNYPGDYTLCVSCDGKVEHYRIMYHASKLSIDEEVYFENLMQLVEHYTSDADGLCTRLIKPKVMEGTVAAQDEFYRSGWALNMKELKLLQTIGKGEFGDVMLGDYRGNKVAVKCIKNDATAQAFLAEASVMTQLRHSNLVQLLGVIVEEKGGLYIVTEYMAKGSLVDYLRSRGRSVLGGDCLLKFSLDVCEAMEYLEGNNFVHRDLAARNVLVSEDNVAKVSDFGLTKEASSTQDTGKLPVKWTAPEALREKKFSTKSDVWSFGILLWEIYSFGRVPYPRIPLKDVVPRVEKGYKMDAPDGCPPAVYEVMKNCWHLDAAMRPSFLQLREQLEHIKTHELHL
UniProt P48730: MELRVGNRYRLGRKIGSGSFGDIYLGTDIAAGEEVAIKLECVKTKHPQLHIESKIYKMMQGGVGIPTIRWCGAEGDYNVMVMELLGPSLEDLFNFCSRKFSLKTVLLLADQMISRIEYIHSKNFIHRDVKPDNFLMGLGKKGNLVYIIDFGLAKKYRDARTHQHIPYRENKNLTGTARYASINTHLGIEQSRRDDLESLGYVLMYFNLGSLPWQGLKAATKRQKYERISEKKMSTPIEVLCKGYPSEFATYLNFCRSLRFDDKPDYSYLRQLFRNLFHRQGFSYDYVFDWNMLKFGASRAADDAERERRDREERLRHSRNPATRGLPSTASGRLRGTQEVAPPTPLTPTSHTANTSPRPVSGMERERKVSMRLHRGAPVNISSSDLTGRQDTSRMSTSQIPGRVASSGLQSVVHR
UniProt Q08345: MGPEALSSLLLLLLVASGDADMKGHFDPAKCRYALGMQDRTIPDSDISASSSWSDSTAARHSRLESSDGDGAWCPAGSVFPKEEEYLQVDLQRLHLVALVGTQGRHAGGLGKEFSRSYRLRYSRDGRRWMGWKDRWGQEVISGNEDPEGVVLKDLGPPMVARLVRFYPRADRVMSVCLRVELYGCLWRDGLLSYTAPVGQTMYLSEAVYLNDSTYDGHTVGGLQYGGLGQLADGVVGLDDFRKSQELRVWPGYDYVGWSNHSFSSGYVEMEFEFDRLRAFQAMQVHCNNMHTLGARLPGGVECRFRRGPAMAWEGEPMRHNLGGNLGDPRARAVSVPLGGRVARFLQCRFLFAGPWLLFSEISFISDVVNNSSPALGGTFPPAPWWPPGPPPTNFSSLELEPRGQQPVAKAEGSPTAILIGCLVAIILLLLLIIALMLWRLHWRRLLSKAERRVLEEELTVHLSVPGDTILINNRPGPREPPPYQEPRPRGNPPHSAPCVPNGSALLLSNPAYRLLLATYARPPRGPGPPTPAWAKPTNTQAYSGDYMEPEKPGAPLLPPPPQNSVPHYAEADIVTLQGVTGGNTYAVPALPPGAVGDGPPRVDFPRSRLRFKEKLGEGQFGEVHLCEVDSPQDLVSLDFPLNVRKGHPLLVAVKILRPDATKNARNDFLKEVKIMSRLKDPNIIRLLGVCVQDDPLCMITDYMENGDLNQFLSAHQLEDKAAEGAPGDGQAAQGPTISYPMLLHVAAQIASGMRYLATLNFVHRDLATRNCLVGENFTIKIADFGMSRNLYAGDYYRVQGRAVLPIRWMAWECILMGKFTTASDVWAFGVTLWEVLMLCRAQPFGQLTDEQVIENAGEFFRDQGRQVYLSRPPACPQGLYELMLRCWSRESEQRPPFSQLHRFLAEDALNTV
UniProt Q9Y463, whole entry, looked up: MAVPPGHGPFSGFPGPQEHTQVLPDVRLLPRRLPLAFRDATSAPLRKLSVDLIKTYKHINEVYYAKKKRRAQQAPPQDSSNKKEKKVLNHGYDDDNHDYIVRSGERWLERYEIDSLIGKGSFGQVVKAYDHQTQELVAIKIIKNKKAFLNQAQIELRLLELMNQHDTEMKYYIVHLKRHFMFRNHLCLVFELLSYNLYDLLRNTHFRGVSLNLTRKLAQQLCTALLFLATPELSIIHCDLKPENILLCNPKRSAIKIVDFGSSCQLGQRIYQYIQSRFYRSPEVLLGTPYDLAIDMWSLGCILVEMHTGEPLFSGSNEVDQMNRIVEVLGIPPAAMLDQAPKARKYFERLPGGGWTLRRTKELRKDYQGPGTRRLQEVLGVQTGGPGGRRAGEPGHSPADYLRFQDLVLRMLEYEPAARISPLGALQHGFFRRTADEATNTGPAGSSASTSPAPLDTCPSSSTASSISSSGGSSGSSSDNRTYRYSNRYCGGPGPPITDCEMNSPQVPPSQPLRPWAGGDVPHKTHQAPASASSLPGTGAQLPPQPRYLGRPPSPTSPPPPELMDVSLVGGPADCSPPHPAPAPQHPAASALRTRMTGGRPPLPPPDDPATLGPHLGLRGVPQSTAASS
UniProt P29317, whole entry: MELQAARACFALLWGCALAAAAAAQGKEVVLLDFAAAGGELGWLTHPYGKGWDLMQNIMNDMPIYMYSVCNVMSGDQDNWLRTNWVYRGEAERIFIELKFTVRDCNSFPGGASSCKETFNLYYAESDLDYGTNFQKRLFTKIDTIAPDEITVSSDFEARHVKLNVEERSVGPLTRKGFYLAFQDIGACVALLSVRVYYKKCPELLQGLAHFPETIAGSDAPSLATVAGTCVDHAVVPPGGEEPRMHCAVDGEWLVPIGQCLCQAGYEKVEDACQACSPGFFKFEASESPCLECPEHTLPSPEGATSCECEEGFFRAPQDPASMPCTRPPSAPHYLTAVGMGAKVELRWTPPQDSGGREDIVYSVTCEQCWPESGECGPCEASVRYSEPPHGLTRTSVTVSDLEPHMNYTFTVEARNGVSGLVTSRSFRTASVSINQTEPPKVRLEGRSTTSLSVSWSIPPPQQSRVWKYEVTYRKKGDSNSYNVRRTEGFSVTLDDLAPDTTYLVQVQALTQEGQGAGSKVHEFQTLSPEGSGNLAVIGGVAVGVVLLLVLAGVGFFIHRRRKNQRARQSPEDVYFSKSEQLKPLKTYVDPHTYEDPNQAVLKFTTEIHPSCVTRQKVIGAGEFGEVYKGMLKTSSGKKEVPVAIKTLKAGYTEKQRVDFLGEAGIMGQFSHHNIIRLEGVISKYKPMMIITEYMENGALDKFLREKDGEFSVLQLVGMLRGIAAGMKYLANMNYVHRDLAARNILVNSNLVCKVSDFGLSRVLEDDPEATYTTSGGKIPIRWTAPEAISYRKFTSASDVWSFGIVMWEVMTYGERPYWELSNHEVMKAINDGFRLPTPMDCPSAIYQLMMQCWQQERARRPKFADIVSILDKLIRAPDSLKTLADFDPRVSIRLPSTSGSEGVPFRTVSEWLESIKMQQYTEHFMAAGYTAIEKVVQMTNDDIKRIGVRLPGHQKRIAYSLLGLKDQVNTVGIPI
UniProt Q15303, whole entry R711C: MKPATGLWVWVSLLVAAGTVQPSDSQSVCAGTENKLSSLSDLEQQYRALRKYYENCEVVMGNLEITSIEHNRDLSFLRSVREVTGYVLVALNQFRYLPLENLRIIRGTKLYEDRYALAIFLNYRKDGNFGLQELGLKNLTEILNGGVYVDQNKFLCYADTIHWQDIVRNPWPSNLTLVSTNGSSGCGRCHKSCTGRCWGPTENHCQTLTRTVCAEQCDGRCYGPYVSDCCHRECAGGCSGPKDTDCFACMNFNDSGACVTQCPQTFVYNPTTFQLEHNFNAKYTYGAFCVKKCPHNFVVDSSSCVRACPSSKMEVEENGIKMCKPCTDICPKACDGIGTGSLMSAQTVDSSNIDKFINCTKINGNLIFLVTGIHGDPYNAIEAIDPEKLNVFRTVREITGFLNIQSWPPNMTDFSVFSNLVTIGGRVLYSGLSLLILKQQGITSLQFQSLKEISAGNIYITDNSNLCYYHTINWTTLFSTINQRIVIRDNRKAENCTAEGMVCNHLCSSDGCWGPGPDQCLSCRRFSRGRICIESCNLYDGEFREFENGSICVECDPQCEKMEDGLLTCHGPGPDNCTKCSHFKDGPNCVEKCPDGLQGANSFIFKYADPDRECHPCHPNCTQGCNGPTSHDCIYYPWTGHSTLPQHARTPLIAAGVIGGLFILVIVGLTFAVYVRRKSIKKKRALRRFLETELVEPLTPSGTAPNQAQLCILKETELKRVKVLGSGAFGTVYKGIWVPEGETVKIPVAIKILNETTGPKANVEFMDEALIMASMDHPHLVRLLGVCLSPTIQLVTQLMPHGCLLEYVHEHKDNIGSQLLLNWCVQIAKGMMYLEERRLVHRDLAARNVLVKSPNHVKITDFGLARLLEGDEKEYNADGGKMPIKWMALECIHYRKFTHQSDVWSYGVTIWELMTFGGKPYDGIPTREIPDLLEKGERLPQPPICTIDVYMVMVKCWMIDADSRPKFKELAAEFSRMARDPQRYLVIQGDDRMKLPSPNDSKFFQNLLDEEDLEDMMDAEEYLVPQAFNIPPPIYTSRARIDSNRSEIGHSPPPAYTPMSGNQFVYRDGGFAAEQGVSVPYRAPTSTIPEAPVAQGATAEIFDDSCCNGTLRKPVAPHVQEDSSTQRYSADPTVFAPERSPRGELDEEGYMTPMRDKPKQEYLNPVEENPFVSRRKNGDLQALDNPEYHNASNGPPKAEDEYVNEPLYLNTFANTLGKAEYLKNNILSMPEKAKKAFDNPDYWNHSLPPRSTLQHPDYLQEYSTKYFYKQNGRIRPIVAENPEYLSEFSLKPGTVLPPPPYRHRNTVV

Measured: kinase-Nluc reporter destabilization hit call

O=C(Nc1cc(Cl)cc2c1[nH]c1cnccc12)c1cccnc1 (10 µM)
inactive: CDK7 = 0 | CDK9 = 0 | CHEK2 = 0 | CSF1R 0 | CSK 0 | CSNK1A1 = 0 | CSNK1D 0 | DDR1 = 0 | DYRK1B 0 | DYRK2 = 0 | EGFR 0 | EGFR_G719S 0 | EGFR_G719S_T790M 0 | EGFR_L718V 0 | EGFR_L858R 0 | EGFR_L861Q 0 | EGFR_T790M 0 | EPHA2 = 0 | ERBB3 = 0 | [1] 0

O=C(O)c1cc(N(Cc2ccccc2O)Cc2cc(O)ccc2O)ccc1O [Lavendustin A] (10 µM)
inactive: CDK7 = 0 | CDK9 = 0 | CHEK2 = 0 | CSF1R 0 | CSK 0 | CSNK1A1 = 0 | CSNK1D 0 | DDR1 = 0 | DYRK1B 0 | DYRK2 = 0 | EGFR 0 | EGFR_G719S 0 | EGFR_G719S_T790M 0 | EGFR_L718V 0 | EGFR_L858R 0 | EGFR_L861Q 0 | EGFR_T790M 0 | EPHA2 = 0 | ERBB3 = 0 | [1] 0

O=c1c2c([nH]n1-c1nc3ccccc3s1)CCCC2 (10 µM)
inactive: CDK7 = 0 | CDK9 = 0 | CHEK2 = 0 | CSF1R 0 | CSK 0 | CSNK1A1 = 0 | CSNK1D 0 | DDR1 = 0 | DYRK1B 0 | DYRK2 = 0 | EGFR 0 | EGFR_G719S 0 | EGFR_G719S_T790M 0 | EGFR_L718V 0 | EGFR_L858R 0 | EGFR_L861Q 0 | EGFR_T790M 0 | EPHA2 = 0 | ERBB3 = 0 | [1] 0

CCc1c[nH]c2ncnc(N3CC[C@](N)(CNC(=O)c4ccc(F)cc4F)C3)c12 (10 µM)
inactive: CDK7 = 0 | CDK9 = 0 | CHEK2 = 0 | CSF1R 0 | CSK 0 | CSNK1A1 = 0 | CSNK1D 0 | DDR1 = 0 | DYRK1B 0 | DYRK2 = 0 | EGFR 0 | EGFR_G719S 0 | EGFR_G719S_T790M 0 | EGFR_L718V 0 | EGFR_L858R 0 | EGFR_L861Q 0 | EGFR_T790M 0 | EPHA2 = 0 | ERBB3 = 0 | [1] 0

As a short view, two of the compounds above:
O=C(O)c1cc(N(Cc2ccccc2O)Cc2cc(O)ccc2O)ccc1O [Lavendustin A] (10 µM)
inactive: CDK7 = 0 | CDK9 = 0 | CHEK2 = 0 | CSF1R 0 | CSK 0 | CSNK1A1 = 0 | CSNK1D 0 | DDR1 = 0 | DYRK1B 0 | DYRK2 = 0 | EGFR 0 | EGFR_G719S 0 | EGFR_G719S_T790M 0 | EGFR_L718V 0 | EGFR_L858R 0 | EGFR_L861Q 0 | EGFR_T790M 0 | EPHA2 = 0 | ERBB3 = 0 | [1] 0

O=c1c2c([nH]n1-c1nc3ccccc3s1)CCCC2 (10 µM)
inactive: CDK7 = 0 | CDK9 = 0 | CHEK2 = 0 | CSF1R 0 | CSK 0 | CSNK1A1 = 0 | CSNK1D 0 | DDR1 = 0 | DYRK1B 0 | DYRK2 = 0 | EGFR 0 | EGFR_G719S 0 | EGFR_G719S_T790M 0 | EGFR_L718V 0 | EGFR_L858R 0 | EGFR_L861Q 0 | EGFR_T790M 0 | EPHA2 = 0 | ERBB3 = 0 | [1] 0

(listing goes on)

O=C(NCCN1CCOCC1)Nc1nc2ccc(Sc3nnc4ccc(-c5ccc(F)cc5)nn34)cc2s1 (10 µM)
inactive: CDK7 = 0 | CDK9 = 0 | CHEK2 = 0 | CSF1R 0 | CSK 0 | CSNK1A1 = 0 | CSNK1D 0 | DDR1 = 0 | DYRK1B 0 | DYRK2 = 0 | EGFR 0 | EGFR_G719S 0 | EGFR_G719S_T790M 0 | EGFR_L718V 0 | EGFR_L858R 0 | EGFR_L861Q 0 | EGFR_T790M 0 | EPHA2 = 0 | ERBB3 = 0 | [1] 0

CCCn1/c(=N/C(=O)c2cccc(C(N)=O)c2)[nH]c2ccccc21 [Takinib] (10 µM)
inactive: CDK7 = 0 | CDK9 = 0 | CHEK2 = 0 | CSF1R 0 | CSK 0 | CSNK1A1 = 0 | CSNK1D 0 | DDR1 = 0 | DYRK1B 0 | DYRK2 = 0 | EGFR 0 | EGFR_G719S 0 | EGFR_G719S_T790M 0 | EGFR_L718V 0 | EGFR_L858R 0 | EGFR_L861Q 0 | EGFR_T790M 0 | EPHA2 = 0 | ERBB3 = 0 | [1] 0

NCCOc1ccc(Cl)cc1C(=O)Nc1ccc([N+](=O)[O-])cc1Cl [HJC0152 hydrochloride] (2 µM)
inactive: CDK7 = 0 | CDK9 = 0 | CHEK2 = 0 | CSF1R 0 | CSK 0 | CSNK1A1 = 0 | CSNK1D 0 | DDR1 = 0 | DYRK1B 0 | DYRK2 = 0 | EGFR 0 | EGFR_G719S 0 | EGFR_G719S_T790M 0 | EGFR_L718V 0 | EGFR_L858R 0 | EGFR_L861Q 0 | EGFR_T790M 0 | EPHA2 = 0 | ERBB3 = 0 | [1] 0

CN(C)c1ccc(-c2nc3ncc(Cl)c(N4CCN(CC(=O)Nc5nccs5)CC4)c3[nH]2)cc1 (2 µM)
inactive: CDK7 = 0 | CDK9 = 0 | CHEK2 = 0 | CSF1R 0 | CSK 0 | CSNK1A1 = 0 | CSNK1D 0 | DDR1 = 0 | DYRK1B 0 | DYRK2 = 0 | EGFR 0 | EGFR_G719S 0 | EGFR_G719S_T790M 0 | EGFR_L718V 0 | EGFR_L858R 0 | EGFR_L861Q 0 | EGFR_T790M 0 | EPHA2 = 0 | ERBB3 = 0 | [1] 0

Cc1cc(CSc2ccccc2C(=O)NCCNc2ccc(C(F)(F)F)cc2[N+](=O)[O-])on1 (10 µM)
inactive: CDK7 = 0 | CDK9 = 0 | CHEK2 = 0 | CSF1R 0 | CSK 0 | CSNK1A1 = 0 | CSNK1D 0 | DDR1 = 0 | DYRK1B 0 | DYRK2 = 0 | EGFR 0 | EGFR_G719S 0 | EGFR_G719S_T790M 0 | EGFR_L718V 0 | EGFR_L858R 0 | EGFR_L861Q 0 | EGFR_T790M 0 | EPHA2 = 0 | ERBB3 = 0 | [1] 0

NC1(C(=O)NCCCn2cc(-c3ccc(OC(F)(F)F)cc3)c3cc(CN4CCN(Cc5c(Cl)cccc5Cl)CC4)ccc32)CCNCC1 (2.5 µM)
inactive: CDK7 = 0 | CDK9 = 0 | CHEK2 = 0 | CSF1R 0 | CSK 0 | CSNK1A1 = 0 | CSNK1D 0 | DDR1 = 0 | DYRK1B 0 | DYRK2 = 0 | EGFR 0 | EGFR_G719S 0 | EGFR_G719S_T790M 0 | EGFR_L718V 0 | EGFR_L858R 0 | EGFR_L861Q 0 | EGFR_T790M 0 | EPHA2 = 0 | ERBB3 = 0 | [1] 0

O=C1Nc2ccc(CN3C(=O)CSC3=O)cc2/C1=C/c1cc(CN2CCOCC2)c[nH]1 (10 µM)
inactive: CDK7 = 0 | CDK9 = 0 | CHEK2 = 0 | CSF1R 0 | CSK 0 | CSNK1A1 = 0 | CSNK1D 0 | DDR1 = 0 | DYRK1B 0 | DYRK2 = 0 | EGFR 0 | EGFR_G719S 0 | EGFR_G719S_T790M 0 | EGFR_L718V 0 | EGFR_L858R 0 | EGFR_L861Q 0 | EGFR_T790M 0 | EPHA2 = 0 | ERBB3 = 0 | [1] 0

Cc1ccc(C(=O)NC2CC2)cc1-n1ncc(C(=O)c2cccc(C#N)c2)c1N [Acumapimod] (10 µM)
inactive: CDK7 = 0 | CDK9 = 0 | CHEK2 = 0 | CSF1R 0 | CSK 0 | CSNK1A1 = 0 | CSNK1D 0 | DDR1 = 0 | DYRK1B 0 | DYRK2 = 0 | EGFR 0 | EGFR_G719S 0 | EGFR_G719S_T790M 0 | EGFR_L718V 0 | EGFR_L858R 0 | EGFR_L861Q 0 | EGFR_T790M 0 | EPHA2 = 0 | ERBB3 = 0 | [1] 0

COc1ccc(-c2cc(=O)c3c(OC)cc(OC)c(OC)c3o2)cc1 [6-Demethoxytangeretin] (10 µM)
inactive: CDK7 = 0 | CDK9 = 0 | CHEK2 = 0 | CSF1R 0 | CSK 0 | CSNK1A1 = 0 | CSNK1D 0 | DDR1 = 0 | DYRK1B 0 | DYRK2 = 0 | EGFR 0 | EGFR_G719S 0 | EGFR_G719S_T790M 0 | EGFR_L718V 0 | EGFR_L858R 0 | EGFR_L861Q 0 | EGFR_T790M 0 | EPHA2 = 0 | ERBB3 = 0 | [1] 0

Clc1ccc(C(c2ccc(Cl)cc2)[n+]2ccn(CC(OCc3ccc(Cl)cc3Cl)c3ccc(Cl)cc3Cl)c2)cc1 (stereo not given) [Calmidazolium chloride] (2.5 µM)
inactive: CDK7 = 0 | CDK9 = 0 | CHEK2 = 0 | CSF1R 0 | CSK 0 | CSNK1A1 = 0 | CSNK1D 0 | DDR1 = 0 | DYRK1B 0 | DYRK2 = 0 | EGFR 0 | EGFR_G719S 0 | EGFR_G719S_T790M 0 | EGFR_L718V 0 | EGFR_L858R 0 | EGFR_L861Q 0 | EGFR_T790M 0 | EPHA2 = 0 | ERBB3 = 0 | [1] 0

CC(C)[C@H](CO)Nc1nc(Nc2cccc(Cl)c2)c2ncn(C(C)C)c2n1 [Purvalanol A] (10 µM)
inactive: CDK7 = 0 | CDK9 = 0 | CHEK2 = 0 | CSF1R 0 | CSK 0 | CSNK1A1 = 0 | CSNK1D 0 | DYRK1B 0 | DYRK2 = 0 | EGFR 0 | EGFR_G719S 0 | EGFR_G719S_T790M 0 | EGFR_L718V 0 | EGFR_L858R 0 | EGFR_L861Q 0 | EGFR_T790M 0 | EPHA2 = 0 | ERBB3 = 0 | [1] 0
active: DDR1 = 1

Nc1nc(NCCNc2ncc(-n3ccnc3)c(-c3ccc(Cl)cc3Cl)n2)ccc1[N+](=O)[O-] (2.5 µM)
inactive: CDK7 = 0 | CDK9 = 0 | CHEK2 = 0 | CSF1R 0 | CSK 0 | CSNK1A1 = 0 | CSNK1D 0 | DDR1 = 0 | DYRK1B 0 | DYRK2 = 0 | EGFR 0 | EGFR_G719S_T790M 0 | EGFR_L718V 0 | EGFR_L858R 0 | EGFR_L861Q 0 | EGFR_T790M 0 | EPHA2 = 0 | ERBB3 = 0 | [1] 0
active: EGFR_G719S 1

Cc1cc(O)c2c(c1)C(=O)c1cccc(O)c1C2=O [Chrysophanol] (2 µM)
inactive: CDK7 = 0 | CDK9 = 0 | CHEK2 = 0 | CSF1R 0 | CSK 0 | CSNK1A1 = 0 | CSNK1D 0 | DDR1 = 0 | DYRK1B 0 | DYRK2 = 0 | EGFR 0 | EGFR_G719S 0 | EGFR_G719S_T790M 0 | EGFR_L718V 0 | EGFR_L858R 0 | EGFR_L861Q 0 | EGFR_T790M 0 | EPHA2 = 0 | ERBB3 = 0 | [1] 0

Cc1cccc(/C=N/Nc2cc(N3CCOCC3)n3nc(-c4ccncc4)cc3n2)c1 (10 µM)
inactive: CDK7 = 0 | CDK9 = 0 | CHEK2 = 0 | CSF1R 0 | CSK 0 | CSNK1A1 = 0 | CSNK1D 0 | DDR1 = 0 | DYRK1B 0 | DYRK2 = 0 | EGFR 0 | EGFR_G719S 0 | EGFR_G719S_T790M 0 | EGFR_L718V 0 | EGFR_L858R 0 | EGFR_L861Q 0 | EGFR_T790M 0 | EPHA2 = 0 | ERBB3 = 0 | [1] 0

Source: the supplement of paper PMC12823440, “Inhibitors supercharge kinase turnover through native proteolytic circuits” (Nature, 2025)
